# Experimental data published in PubChem BioAssay AID504467 (National Center for Advancing Translational Sciences (NCATS), 2011).
# Hit rate of the full screen: of about 330,000 compounds, about 7,700 (2.3%) were called active. Inconclusive results, whose numbers are uncertain, are shown with a selection of clear calls. Calls come from the whole dose curve; as a rule, active = well fitted inhibition curve with a large enough effect; inconclusive = small, poorly fitted or top-dose-only effect, or effect the other way; inactive = flat fitted curve, though single readings scatter. A potency beside an inconclusive call is a rough fit, not a confirmed value.
# Test: qHTS screen for small molecules that inhibit ELG1-dependent DNA repair in human embryonic kidney (HEK293T) cells expressing luciferase-tagged ELG1; note: nearly all actives have a fitted effect of over 55% in size
# Settings: HEK293T ELG1-luciferase reporter, luminescence, 16 h, DNA damage induced by 5-fluorouridine; activity change, negative = inhibition: at 46.1 µM (top of the series)
# Summary of the method: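 DMSO vehicle served as the neutral condition. Each well held 2,000 cells given 5-fluorouridine plus compound; after 16 hr at 37 °C/5% CO2, ONE-Glo was added and luciferase measured 30 min later.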
# % is set by controls: 0 for no effect and ±100 for the full control effect; potency is the fitted concentration of half-maximal effect.
SMILES,"activity change, negative = inhibition",Potency
CCOC(=O)NN=C1c2ccccc2-c2ccccc21,inactive: -2.72%,
O=C(COCc1cc(-c2ccc3c(c2)OCO3)on1)N1CCCCC1,,"inconclusive: 20.6 µM [activator, partial curve]"
COc1ccc(CC2(CO)CCN(Cc3cnn(-c4ccc(F)cc4)c3)CC2)cc1,,"inconclusive: 2.31 µM [inhibitor, partial curve, poor fit]"
Cc1c(C(=O)N2CCCC2)sc(NC(=O)c2ccccc2)c1C#N,,"inconclusive: 0.259 µM [inhibitor, partial curve, poor fit]"
COc1cc(CN2CCN(c3cccc(Cl)c3)CC2)cc(OC)c1OC,,"inconclusive: 5.17 µM [inhibitor, single point]"
O=C(Nc1ccc(-c2nnn(CC(=O)N3CCN(C(=O)c4ccco4)CC3)n2)cc1)c1ccccc1F,,"inconclusive: 29.1 µM [inhibitor, single point]"
O=C(CCCCCNc1nc(=S)[nH]c2ccccc12)N1CCN(c2ccccn2)CC1,,"inconclusive: 20.6 µM [inhibitor, partial curve]"
Cc1cccc2c1NC1(CCCC1)CC2C (stereo not given),,"inconclusive: 29.1 µM [inhibitor, single point]"
CCc1ccc(NC(=O)C(=O)NCC(O)c2ccccc2)cc1 (stereo not given),inactive: 4.98%,
COc1cccc2cc(-c3nnc(-c4ccccc4)o3)c(=O)oc12,,"inconclusive: 2.06 µM [activator, partial curve]"
COc1ccccc1C(=O)Nc1ccc(S(=O)(=O)Nc2onc(C)c2C)cc1,,"inconclusive: 20.6 µM [activator, partial curve]"
O=C(c1ccccc1F)N1CCN(c2ccc([N+](=O)[O-])c(NCC3CCCO3)c2)CC1 (stereo not given),,"inconclusive: 23.1 µM [inhibitor, single point]"
CCOC(=O)N=Nc1c(O)n(CC(=O)OC)c2ccccc12,inactive: -0.0139%,
Clc1cc(Cl)c(OCc2nc(-c3ccccn3)no2)cc1Cl,,"inconclusive: 6.51 µM [activator, partial curve]"
O=C(NCCCN1CCOCC1)c1ccc2nc(Cc3ccccc3F)oc2c1,,"inconclusive: 13 µM [activator, partial curve]"
CCOc1ccc2[nH]c(=O)c(CN(CCO)C(=O)c3ccc(Br)cc3)cc2c1,inactive: -7.2%,
O=C(O)CCC(=O)Nc1ccccc1C(=O)NCc1ccco1,,"inconclusive: 25.9 µM [activator, partial curve, poor fit]"
CN(Cc1ccccc1F)C(=O)c1ccccc1Sc1ccccc1C#N,inactive: 7.58%,
Cc1cccc(OCC(=O)Nc2nnc(S(=O)(=O)N3CCCCCC3)s2)c1,inactive: 2.6%,
COC(=O)[C@]1(C)CCC[C@@]2(C)C3CC[C@@]4(C)C[C@]3(CC[C@H]12)C[C@H]4O (stereo not given in full),,"inconclusive: 23.1 µM [inhibitor, partial curve, poor fit]"
O=C(Nc1ccnn1C1CCN(Cc2c(F)cccc2Cl)CC1)C1CCCC1,inactive: -4.09%,
COCCNC(=O)/C(C#N)=C/c1cccs1,,"inconclusive: 18.3 µM [activator, partial curve]"
Cc1c(C(=O)NCCCN2CCOCC2)oc2c1C1(CCC2)SCCS1,,"inconclusive: 29.1 µM [inhibitor, single point]"
CCCCCCS(=O)[C@H]1CS(=O)(=O)C[C@@H]1S(=O)CCCCCC (stereo not given in full),inactive: -8.45%,

# Five compounds from above, arranged by heavy-atom count, high to low.
SMILES,"activity change, negative = inhibition",Potency
Cc1cccc(OCC(=O)Nc2nnc(S(=O)(=O)N3CCCCCC3)s2)c1,inactive: 2.6%,
Cc1c(C(=O)NCCCN2CCOCC2)oc2c1C1(CCC2)SCCS1,,"inconclusive: 29.1 µM [inhibitor, single point]"
O=C(COCc1cc(-c2ccc3c(c2)OCO3)on1)N1CCCCC1,,"inconclusive: 20.6 µM [activator, partial curve]"
CCCCCCS(=O)[C@H]1CS(=O)(=O)C[C@@H]1S(=O)CCCCCC (stereo not given in full),inactive: -8.45%,
Clc1cc(Cl)c(OCc2nc(-c3ccccn3)no2)cc1Cl,,"inconclusive: 6.51 µM [activator, partial curve]"

# (continued)

SMILES,"activity change, negative = inhibition",Potency
CN1C(C(=O)NCc2ccccc2)CC2Cn3c(nc4ccccc43)C21 (stereo not given),inactive: 0%,
Cc1c(C(=O)N2CCCc3ccccc32)sc2nc(-c3ccccc3)cn12,,"inconclusive: 29.1 µM [inhibitor, single point]"
CN1CCN(c2nc(-c3ccc(Cl)s3)cs2)CC1,,"inconclusive: 16.4 µM [activator, partial curve]"
CC(C)CC(O)(c1ccccc1)C(CN1CCOCC1)c1ccccc1 (stereo not given),inactive: -15.5%,
Cc1ccsc1/C=N/NC(=O)CNC(=O)c1ccco1,,"inconclusive: 29.1 µM [activator, single point]"
O=C(CSc1ncc(-c2ccccc2)[nH]1)Nc1ccccc1F,,"inconclusive: 20.6 µM [activator, partial curve, poor fit]"
CN(C)C=Nc1nonc1-c1ccc(Cl)cc1,inactive: -9.82%,
Cc1ccc(-c2nn3c(=O)c(C)nnc3s2)cc1,,"inconclusive: 23.1 µM [activator, partial curve, poor fit]"
Cc1ccccc1N1CCN(Cc2nc(Cc3ccccc3)no2)CC1,inactive: 0.237%,
S=c1[nH]nc(COc2ccc3ccccc3c2)o1,,"inconclusive: 23.1 µM [activator, partial curve]"
CN(C)c1ccc(-c2cc(O)c3ncccc3c2)cc1,,"inconclusive: 14.6 µM [activator, partial curve]"
O=C(NCC(c1ccc(F)cc1)N1CCOCC1)c1ccc(-c2ccccc2)cc1 (stereo not given),,"inconclusive: 18.3 µM [inhibitor, single point]"
OCc1cn(-c2ccccc2)nc1-c1ccc2c(c1)OCCO2,,"inconclusive: 3.26 µM [activator, partial curve]"
Cc1ccc(C(=O)NCCSc2snnc2C)cc1,,"inconclusive: 20.6 µM [activator, single point]"
CC(=O)Nc1ccc(S(=O)(=O)NCC(=O)NC(C)c2ccc(S(N)(=O)=O)cc2)cc1 (stereo not given),,"inconclusive: 1.83 µM [activator, single point]"
O=C(CCS(=O)(=O)c1ccccc1)N1CCN(c2ccccc2)CC1,,"inconclusive: 9.2 µM [activator, partial curve]"
COc1ccc(C)cc1Nc1c2c(nc3ccccc13)CCC2,,"inconclusive: 2.06 µM [inhibitor, partial curve, poor fit]"
Cc1ccc(C)c(NC(=S)NNC(=O)c2sccc2C)c1,,"inconclusive: 29.1 µM [activator, partial curve, poor fit]"
Cc1ccc(NC(=S)NCc2ccc(Cl)cc2)c(C)c1,inactive: -0.176%,
N#C/C(=C\c1ccc(N2CCCCC2)o1)C(N)=O,,"inconclusive: 23.1 µM [activator, single point]"
CCCn1nc(C(=O)Oc2ccc3c(C)cc(=O)oc3c2)c2ccccc2c1=O,,"inconclusive: 4.11 µM [inhibitor, full curve]"
CC(=O)c1ccc(C(=O)Nc2nnc(-c3ccc(Cl)cc3)o2)cc1,,"inconclusive: 14.6 µM [inhibitor, partial curve]"
CN(C)c1ccc(NC(=S)c2ccc3ccccc3n2)cc1,,"inconclusive: 7.3 µM [activator, partial curve]"
c1ccc(CCCCN2CCN=C2Nc2ccccc2)cc1,inactive: -5.63%,

SMILES,"activity change, negative = inhibition",Potency
Cc1cccc(-c2nc(C#N)c(NC3CCCCC3)o2)c1,,"inconclusive: 2.91 µM [activator, partial curve]"
CC(C)c1ccc(NC(=O)c2cnn(-c3ccccc3)c2NC(=O)c2ccco2)cc1,,"inconclusive: 23.1 µM [inhibitor, partial curve]"
COC(=O)CNC(=O)Cn1c(=O)n(Cc2ccc(F)cc2)c(=O)c2sccc21,,"inconclusive: 18.3 µM [activator, single point]"
Cc1ccc2cc(CN(CC3CCCO3)C(=S)Nc3ccccc3)c(=O)[nH]c2c1C (stereo not given),,active: 4.61 µM
COC(=O)c1c(C)oc2ccc(N(C(=O)Oc3ccccc3)S(=O)(=O)c3ccc(Cl)c([N+](=O)[O-])c3)cc12,inactive: -27%,
O=C(CSc1nnc(C2CCCCC2)o1)N1CCCCC1,,"inconclusive: 16.4 µM [activator, partial curve]"
Cc1ccc(NC(=O)CSc2ccc(-c3ccc(-n4cccn4)cc3)nn2)c(C)c1,,"inconclusive: 4.61 µM [activator, partial curve, poor fit]"
COc1ccc(CN2CCN(Cc3c[nH]c4ccccc34)CC2CCO)cc1C (stereo not given),inactive: 7.5%,
CC1Sc2ccc(S(=O)(=O)N3CCC(C(=O)Nc4cccc(Cl)c4)CC3)cc2NC1=O (stereo not given),,"inconclusive: 29.1 µM [inhibitor, single point]"
Cc1ccc(N(Cc2cc3ccccc3[nH]c2=O)C(=O)c2cccs2)cc1C,,active: 23.1 µM
O=C(CCN1C(=O)S/C(=C\c2ccc(Cl)cc2)C1=O)Nc1ccc(C(=O)O)cc1,,"inconclusive: 25.9 µM [activator, single point]"
O=C(Cc1ccccc1)Nc1nc2ccccc2s1,,"inconclusive: 11.6 µM [activator, partial curve]"
Cn1ncc([N+](=O)[O-])c1C(=O)Nc1nccs1,inactive: -1.51%,
O=c1c2c3c(sc2nc2n1CCCC2)CCCCC3,,"inconclusive: 20.6 µM [activator, partial curve]"
CC1=C(C(=O)OCc2ccccc2)C(c2ccco2)n2ncnc2N1 (stereo not given),,"inconclusive: 29.1 µM [inhibitor, single point]"
COC(=O)c1cc(NC(=O)c2cccc(C(F)(F)F)c2)c(=O)oc1C,inactive: 0%,
CCCCOCCCNc1ncnc2c1[nH]c1ccccc12,,"inconclusive: 4.11 µM [inhibitor, full curve]"
Cc1c(CCO)c(=O)n(C)n1C(=O)c1ccc(Cl)cc1,inactive: 14.6%,
CCc1cccc2c(C=C(C#N)C#N)cn(CC(=O)N3CCCCCC3)c12,inactive: -5.06%,
Cc1cccc(Nc2ncnc3ccccc23)c1,,"inconclusive: 16.4 µM [inhibitor, single point]"
CCOc1ccc(S(=O)(=O)N(C)c2ccc(OCC(=O)Nc3ccc4[nH]c(=O)[nH]c4c3)cc2)cc1,,"inconclusive: 29.1 µM [inhibitor, single point]"
C/C(=N/NC(=O)c1cc(-c2cccc([N+](=O)[O-])c2)n[nH]1)c1cccc(O)c1,,"inconclusive: 18.3 µM [inhibitor, partial curve, poor fit]"
